Measurements taken from the supplement of paper PMC10689618.
The list shows a part of the results. Many values rest on one well or one pass, so single values are uncertain.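 Labelled rat cortical synaptosomes were engulfed by primary human fetal astrocytes. Engulfment equaled a red/green ratio, corrected for calcein live-cell signal and normalized to the plate median. Compounds were toxic when calcein dropped over 30%, and reduced phagocytosis when below 70% of the median above 5 µM.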

Legend:
[1] = test system: Human fetal astrocytes; test: loss of total cells relative to no-compound high-control median (toxicity); higher = more toxic (fewer cells); details: 24 h
[2] = test system: Human fetal astrocytes; test: synaptosome phagocytosis (pHrodo/calcein intensity ratio) relative to plate median of data wells; higher = more phagocytosis; details: 24 h

Row | Compound | loss of total cells ([1]; 1.39 µM) | loss of total cells ([1]; 2.78 µM) | loss of total cells ([1]; 5.56 µM) | loss of total cells ([1]; 11.11 µM) | loss of total cells ([1]; 22.22 µM) | synaptosome phagocytosis ([2]; 1.39 µM) | synaptosome phagocytosis ([2]; 2.78 µM) | synaptosome phagocytosis ([2]; 5.56 µM) | synaptosome phagocytosis ([2]; 11.11 µM) | synaptosome phagocytosis ([2]; 22.22 µM)
1 | C[C@]12CCC(=O)C=C1C=C[C@@H]1[C@@H]2CC[C@@]2(C)[C@H]1CC[C@@]21CCC(=O)O1 | -0.8% | -5.2% | 6.9% | -10.2% | 10.8% | 110% | 99.3% | 91.5% | 99.4% | 84.9%
2 | CCC(C)n1ncn(-c2ccc(N3CCN(c4ccc(OCC5COC(Cn6cncn6)(c6ccc(Cl)cc6Cl)O5)cc4)CC3)cc2)c1=O (stereo not given) | -7.6% | 7.3% | 36.6% | -0.6% | 9.3% | 101% | 93.1% | 158% | 106% | 93.5%
3 | C[C@@H]1O[C@@H](O[C@H]2[C@H](Oc3cc(O)c4c(=O)cc(-c5ccc(O)cc5)oc4c3)O[C@H](CO)[C@@H](O)[C@@H]2O)[C@H](O)[C@H](O)[C@H]1O | -22.1% | 5.4% | 0% | 5.4% | 11.9% | 78.6% | 109% | 110% | 82.3% | 103%
4 | C[C@@](Cc1ccc(O)c(O)c1)(NN)C(=O)O | 13.7% | -21.4% | 6.2% | 12.8% | 5.3% | 148% | 120% | 119% | 115% | 94.7%
5 | C[C@]12CC[C@@H]3c4ccc(O)cc4CC[C@H]3[C@@H]1CC[C@@H]2OC(=O)CCC1CCCC1 | -12.8% | -5.1% | -12.5% | 27.4% | -8.2% | 80% | 67.6% | 79.1% | 91.1% | 83.8%
6 | CC(=O)Oc1ccc(O)cc1 | -7.6% | -4.7% | 6.5% | -7.1% | 20.5% | 83.5% | 97.6% | 123% | 82.9% | 84%
7 | C[C@]12C=CC(=O)C=C1CC[C@@H]1[C@@H]2[C@@H](O)C[C@@]2(C)[C@H]1CC[C@]2(O)C(=O)COC(=O)CCC(=O)O | 21.8% | -25.4% | 9.3% | 5.6% | -5.3% | 123% | 77.7% | 102% | 80.1% | 89.2%
8 | N=C(N)NCCN1CCCCCCC1 | -16.3% | -11.2% | -27.9% | -22.2% | 27.7% | 86.2% | 114% | 128% | 85.1% | 101%
9 | CN1[C@@H](CC(=O)c2ccccc2)CCC[C@H]1C[C@H](O)c1ccccc1 | 17.7% | -8.3% | -2.9% | 11.3% | 12.9% | 102% | 72.7% | 72.6% | 119% | 62.2%
10 | OC(CCN1CCCC1)(c1ccccc1)C1CCCCC1 (stereo not given) | 2.7% | -5.8% | -22.3% | 0.9% | 24.6% | 92.5% | 99.2% | 117% | 74.8% | 85.3%
11 | CN[C@@H]1[C@@H](O)[C@@H](O[C@@H]2[C@@H](O)[C@H](O[C@H]3OC(CN)=CC[C@H]3N)[C@@H](N)C[C@H]2N)OC[C@]1(C)O | 2.1% | -25.4% | -5.6% | 22.8% | -41.6% | 96.6% | 134% | 103% | 105% | 106%
12 | Cc1cc2cc3c(C)cc(=O)oc3c(C)c2o1 | -18.7% | 6.4% | -7% | 6.6% | 38.6% | 118% | 90.8% | 108% | 104% | 116%
13 | COc1cc(OC)c2c(c1)OC(c1ccccc1)CC2=O (stereo not given) | -13.1% | -4.7% | 0.7% | -0.7% | -6.7% | 79.6% | 120% | 92.9% | 78.1% | 89.7%
14 | CC=C(C)C(=O)OC1C(OC(C)=O)C2(CO)C(O)CC3(C)C(=CCC4C5(C)CCC(OC6OC(C(=O)O)C(OC7OC(CO)C(O)C(O)C7O)C(O)C6OC6OC(CO)C(O)C(O)C6O)C(C)(CO)C5CCC43C)C2CC1(C)C (stereo not drawn) [beta-ESCIN] | 7.6% | 1.1% | 2.9% | 2.1% | 17.4% | 88.9% | 144% | 78% | 96.8% | 48.7%
15 | OC[C@H]1O[C@H]([S-])[C@H](O)[C@@H](O)[C@@H]1O.[Au+] | -32.4% | 4.6% | 51.4% | 81.3% | 90.1% | 99.6% | 98.7% | 93.9% | 70.5% | 56.5%
16 | CC(=O)c1c(O)cc(O)cc1O | 2.5% | 12.6% | 20.3% | 7.9% | 28.8% | 107% | 81.6% | 138% | 114% | 109%
17 | COc1ccc2c(c1OC)C(=O)O[C@@H]2[C@H]1c2c(cc3c(c2OC)OCO3)CCN1C | -8.3% | -8.8% | 13.5% | 0.8% | 0% | 99.5% | 121% | 93.9% | 98.1% | 102%
18 | CC1(C)OC(=O)NC1=O | 13.9% | -4.4% | -6.3% | 19.9% | -28.3% | 120% | 160% | 123% | 126% | 103%
19 | Cc1onc(-c2ccccc2Cl)c1C(=O)N[C@@H]1C(=O)N2[C@@H]1SC(C)(C)[C@@H]2C(=O)O | 4.5% | -7.8% | 4.9% | -8.9% | 39.8% | 104% | 85.3% | 126% | 130% | 110%

3 compounds out of the list, arranged by molecular weight, rising.
Row | Compound | loss of total cells ([1]; 1.39 µM) | loss of total cells ([1]; 2.78 µM) | loss of total cells ([1]; 5.56 µM) | loss of total cells ([1]; 11.11 µM) | loss of total cells ([1]; 22.22 µM) | synaptosome phagocytosis ([2]; 1.39 µM) | synaptosome phagocytosis ([2]; 2.78 µM) | synaptosome phagocytosis ([2]; 5.56 µM) | synaptosome phagocytosis ([2]; 11.11 µM) | synaptosome phagocytosis ([2]; 22.22 µM)
18 | CC1(C)OC(=O)NC1=O | 13.9% | -4.4% | -6.3% | 19.9% | -28.3% | 120% | 160% | 123% | 126% | 103%
17 | COc1ccc2c(c1OC)C(=O)O[C@@H]2[C@H]1c2c(cc3c(c2OC)OCO3)CCN1C | -8.3% | -8.8% | 13.5% | 0.8% | 0% | 99.5% | 121% | 93.9% | 98.1% | 102%
14 | CC=C(C)C(=O)OC1C(OC(C)=O)C2(CO)C(O)CC3(C)C(=CCC4C5(C)CCC(OC6OC(C(=O)O)C(OC7OC(CO)C(O)C(O)C7O)C(O)C6OC6OC(CO)C(O)C(O)C6O)C(C)(CO)C5CCC43C)C2CC1(C)C (stereo not drawn) [beta-ESCIN] | 7.6% | 1.1% | 2.9% | 2.1% | 17.4% | 88.9% | 144% | 78% | 96.8% | 48.7%
